Laboratory results from paper PMC11794584.
No constants are given. Whether binding was seen depends on the method and setting. Binding seen in cells or lysates may run through a third protein. Some entries that bind do so weakly or less than the wild type. For part of these data: Tags and fused reporters may be left off the sequences shown.

By UniProt entry, the sequences of proteins in these tests, tags left out. Where a name states a change or a piece, a line headed by the entry shows the natural chain unless it says otherwise.
UniProt P40763: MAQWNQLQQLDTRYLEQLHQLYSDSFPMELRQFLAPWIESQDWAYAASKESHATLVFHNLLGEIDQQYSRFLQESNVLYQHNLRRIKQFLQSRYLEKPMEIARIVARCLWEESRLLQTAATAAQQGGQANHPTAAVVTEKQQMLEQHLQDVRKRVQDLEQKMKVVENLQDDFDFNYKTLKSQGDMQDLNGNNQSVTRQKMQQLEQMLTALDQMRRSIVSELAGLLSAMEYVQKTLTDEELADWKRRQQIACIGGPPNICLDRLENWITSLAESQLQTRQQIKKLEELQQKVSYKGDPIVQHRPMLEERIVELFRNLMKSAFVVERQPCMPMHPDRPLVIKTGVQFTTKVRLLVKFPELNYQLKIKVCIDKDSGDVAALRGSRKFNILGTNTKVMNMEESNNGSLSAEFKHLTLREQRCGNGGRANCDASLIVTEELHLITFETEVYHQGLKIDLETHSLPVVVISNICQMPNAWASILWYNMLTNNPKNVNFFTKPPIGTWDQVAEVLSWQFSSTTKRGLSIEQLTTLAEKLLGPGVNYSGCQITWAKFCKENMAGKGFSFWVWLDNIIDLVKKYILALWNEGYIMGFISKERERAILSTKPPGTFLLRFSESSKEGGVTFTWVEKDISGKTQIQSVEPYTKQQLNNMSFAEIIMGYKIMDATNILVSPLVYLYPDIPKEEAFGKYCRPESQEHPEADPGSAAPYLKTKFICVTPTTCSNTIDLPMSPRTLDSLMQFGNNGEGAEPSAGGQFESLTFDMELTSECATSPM

Assays:
[1] = target: T1, Cell division cycle associated 7 (CDCA7) (human (endogenous in PC cells)) (UniProt Q9BWT1); assay: co-IP; PC cell proteins incubated overnight at 4 °C with anti-CDCA7 antibody, protein A + G beads 2 h, western blotting
T1 sequence: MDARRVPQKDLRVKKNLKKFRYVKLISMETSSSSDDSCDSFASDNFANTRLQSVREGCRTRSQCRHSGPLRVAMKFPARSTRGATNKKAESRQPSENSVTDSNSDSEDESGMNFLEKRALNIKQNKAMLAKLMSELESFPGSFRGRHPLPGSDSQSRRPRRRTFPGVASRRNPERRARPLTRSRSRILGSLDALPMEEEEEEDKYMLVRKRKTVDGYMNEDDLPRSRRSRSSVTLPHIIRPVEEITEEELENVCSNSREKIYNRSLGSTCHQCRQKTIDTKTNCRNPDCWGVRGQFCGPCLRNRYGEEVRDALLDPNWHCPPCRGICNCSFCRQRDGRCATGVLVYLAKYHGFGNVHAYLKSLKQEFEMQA

[2] = target: T2, flag-tagged CDCA7 protein (UniProt Q9BWT1); assay: co-IP; immunoprecipitation and western blotting of flag-tagged truncated CDCA7 and his-tagged STAT3 in HEK 293T
T2 sequence: T1 sequence

[3] = target: T3, flag-tagged CDCA7 D1 (1-120aa) domain (UniProt Q9BWT1); assay: as above
T3 sequence: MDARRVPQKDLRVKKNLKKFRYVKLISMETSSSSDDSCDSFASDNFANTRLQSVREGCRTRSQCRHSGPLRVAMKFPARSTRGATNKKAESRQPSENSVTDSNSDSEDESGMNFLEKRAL

Substance: Signal transducer and activator of transcription 3 (STAT3) (from UniProt P40763 1-770)
- binding [1]: binds

Substance: his-tagged STAT3 D1 (1-385aa) domain (from UniProt P40763 1-385) (domain or fragment)
- binding [2]: binds

Substance: his-tagged STAT3 protein (from UniProt P40763 1-770)
- binding [3]: binds
